14 substances from patent US8076285B2 (Aicuris GmbH & Co. KG, priority 2006, dated 2011) can be followed below.

Series [1] can be described thus: general procedure: Fmoc solid-phase peptide synthesis; chlorotrityl resin; TBTU/DIEA. To be noted: whole synthesis, trifluoroacetate.
A short description of series [2]: general procedure: Fmoc solid-phase peptide synthesis; 2-chlorotrityl chloride resin (Iris Biotech), 0.85 mmol/g; TBTU/DIEA.
The mark [3] stands for this setting: cyclisation step, trifluoroacetate.
The mark [4] stands for this setting: late stage modification step, trifluoroacetate.

Take “[(3R)-N^2-(tert-Butoxycarbonyl)-3-hydroxy-L-leucyl]-L-leucyl-[N^5-(benzyloxycarbonyl)-D-ornithyl]-L-isoleucyl-[O^3-(tert-butyl)-L-allothreonyl]-glycyl-[N^4-trityl-L-asparaginyl]-[O^3-(tert-butyl)-L-serine]”: the isolated yield in series [1] is listed as 28.3% of theory. For “{(3R)-N^2-[(9H-Fluoren-9-ylmethoxy)carbonyl]-3-amino-L-phenylalanyl}-[(3R)-3-hydroxy-L-leucyl]-L-leucyl-D-arginyl-L-isoleucyl-L-allothreonyl-glycyl-[(2S)-2-amino-4-benzyloxycarbonylaminobutyryl]-L-serine C^1.9-N^3.1-lactam trifluoroacetate”, the cyclisation yield in series [2] (cyclisation step, from 369A, trifluoroacetate) is 66% of theory. Moreover, the “final purity (method not given)” value in series [2] (setting [3]) was 58% pure. On to “{(3R)-3-Amino-L-phenylalanyl}-[(3R)-3-hydroxy-L-leucyl]-L-leucyl-(N^5-benzyloxycarbonyl-D-ornithyl)-L-isoleucyl-L-allothreonyl-glycyl-L-seryl-L-serine C^1.9-N^3.1-lactam”, for which, in series [2] (late stage modification step, of theory from 400A, trifluoroacetate), the step yield is recorded as 71% of theory. In series [2] (setting [4]), the “purity (crude or final not stated)” value was 80% pure. For the substance “[(3R)-3-Amino-L-phenylalanyl]-[(3R)-3-hydroxy-L-leucyl]-L-leucyl-D-arginyl-L-isoleucyl-L-allothreonyl-glycyl-L-threonyl-L-serine C^1.9-N^3.3-lactam bishydrochloride”, the step yield in series [2] (setting [4]) is given as 99% of theory. As to “[(3R)-3-Hydroxy-L-leucyl]-L-valyl-D-arginyl-L isoleucyl-L-allothreonyl-glycyl-L-seryl-L-serine bistrifluoroacetate”, the “final purity (method not given)” value in series [2] (setting [4]) is given as 50% pure. As to “[(3R)-N^2-(tert-Butoxycarbonyl)-3-hydroxy-L-leucyl]-L-leucyl-D-arginyl-L-isoleucyl-L-allothreonyl-D-alanyl-[(3S)-3-hydroxy-L-asparaginyl]-L-serinate trifluoroacetate”, the step yield in series [2] (coupling step, trifluoroacetate) is given as 84% of theory.

Regarding “{(3R)-3-Amino-L-phenylalanyl}-[(3R)-3-hydroxy-L-leucyl]-L-leucyl-[(2R)-2-amino-4-benzyloxycarbonylaminobutyryl]-L-isoleucyl-L-allothreonyl-glycyl-L-seryl-L-serine C^1.9-N^3.1-lactam”, the step yield in series [2] (late stage modification step, of theory from 402A, trifluoroacetate) is listed as 62% of theory. Besides, the “purity (crude or final not stated)” value in series [2] (setting [4]) is 60% pure. Regarding “[(3R)3-Hydroxy-L-leucyl]-L-leucyl-D-arginyl-L-isoleucyl-L-allothreonyl-glycyl-L-phenyl alanyl-L-serine bistrifluoroacetate”, the step yield in series [2] (setting [4]) is 99% of theory. As for “[(3R)-N^2-(tert-Butoxycarbonyl)-3-hydroxy-L-leucyl]-L-leucyl-D-arginyl-L-isoleucyl-L-allothreonyl-glycyl-L-asparaginyl-L-serine trifluoroacetate”, the step yield in series [2] (setting [4]) is on record as 99% of theory. Turning to “[(3R)-N^2-(Benzyloxycarbonyl)-3-amino-L-phenylalanyl]-[(3R)-3-hydroxy-L-leucyl]-L-leucyl-D-arginyl-L-valyl-L-allothreonyl-glycyl-L-seryl-L-serine C^1.9-N^3.1-lactam trifluoroacetate”, the cyclisation yield in series [2] (cyclisation step, from 364A, trifluoroacetate) is 91% of theory. In addition, the “final purity (method not given)” value in series [2] (setting [3]) came to 41% pure.

For “[(3R)-3-Hydroxy-L-leucyl]-L-leucyl-D-arginyl-L-isoleucyl-L-allothreonyl-glycyl-L-seryl-L-serine bistrifluoroacetate”, the step yield in series [2] (setting [4]) is given as 99% of theory. “[3-tert-Butyl-D-alanyl]-[3-tert-butyl-L-alanyl]-[(3R)-3-amino-L-phenylalanyl]-[(3R)-3-hydroxy-L-leucyl]-L-leucyl-D-omityl-L-isoleucyl-L-allothreonyl-glycyl-L-asparaginyl-L-serine C^1.11-N^3.3-lactam bistrifluoroacetate”: the step yield in series [2] (setting [4]) is given as 91.9% of theory.

Take “[3-tert-Butyl-D-alanyl]-[(3R)-3-amino-L-phenylalanyl]-[(3R)-3-hydroxy-L-leucyl]-L-leucyl-D-arginyl-L-isoleucyl-L-allothreonyl-glycyl-L-allothreonyl-L-serine C^1.11-N^3.3-lactam bistrifluoroacetate”: the step yield in series [2] (setting [4]) is 57% of theory. On to “[N^2-(tert.-Butoxycarbonyl)-3-tert-butyl-D-alanyl]-[3-tert-butyl-L-alanyl]-[(3R)-3-amino-L-phenylalanyl]-[(3R)-3-hydroxy-L-leucyl]-L-leucyl-D-arginyl-L-isoleucyl-L-allothreonyl-glycyl-L-asparaginyl-L-serine C^1.9-N^3.1-lactam hydrochloride”, for which the step yield in series [2] (coupling step, hydrochloride) was 97% of theory.
